Data as given in PubChem BioAssay AID1224830 (NIAID, 2016)

Assay: 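Regulators of TLR4 signalling towards TNF-alpha in macrophage-like cells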 (primary screen)
Cells: human THP-1 monocytic leukaemia cells, TNF dual-luciferase reporter clone, PMA-differentiated to macrophage-like cells
Reagent: siRNA pool against human genes, 50 nM
Time to read-out: LPS for 4 h, given about 3 days after siRNA transfection
Treatment: bacterial LPS (TLR4 ligand), 10 ng/ml
Read-out: 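TNF firefly reporter luminescence divided by renilla, normalised to the plate median, then turned into a robust z-score for each replicate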
Scale: TNF reporter robust z-score: higher = stronger TNF reporter response to LPS
Active means: 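a well is active when its z-score exceeds 2.8 or falls below -1.5; control wells carry no call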
This is one part, drawn at random, of about 18,000 deposited reagents. About 2,900 of all reagents (16%) count as active. 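Calls are made per well; low scores hint the gene aids the LPS response, high scores that it dampens it.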 Entries without a mark were called inactive. Repeated entries: four replicate wells of each siRNA pool.

no.	gene	TNF reporter robust z-score
1	RPE	-1.34
2	RPE	-1.14
3	RPE	-1.26
4	RPE	-0.79
5	DEF8	0.73
6	DEF8	-0.02
7	DEF8	0.02
8	DEF8	-0.57
9	PRR11	0.5
10	PRR11	0.33
11	PRR11	-0.26
12	PRR11	-0.69
13	SHKBP1	0.4
14	SHKBP1	1.47
15	SHKBP1	0.58
16	HSP90AA1	1.67
17	HSP90AA1	4.52 (active)
18	HSP90AA1	1.39
19	HSP90AA1	0.06
20	SUCO	-1.24
21	SUCO	-1.1
22	SUCO	-0.38
23	SUCO	-1.5
24	N4BP2L1	-0.56
25	N4BP2L1	0.57
26	N4BP2L1	-0.11
27	N4BP2L1	-0.44
28	CACNA1B	0.47
29	CACNA1B	3.51 (active)
30	CACNA1B	-0.31
31	CACNA1B	0.04
32	ULK2	0.25
33	ULK2	-0.72
34	ULK2	0
35	ULK2	-0.06
36	HFE	-0.01
37	HFE	-0.47
38	HFE	-0.96
39	HFE	-0.31
40	FAM91A1	0.06
41	FAM91A1	-0.65
42	FAM91A1	0.45
43	FAM91A1	1.07
44	CCDC150	0.12
45	CCDC150	0.68
46	CCDC150	-0.85
47	CCDC150	0.15
48	IL22RA1	1.89
49	IL22RA1	0.63
50	IL22RA1	1.5
51	IL22RA1	1.31
52	PPARD	0.65
53	PPARD	-0.58
54	PPARD	-0.54
55	PPARD	0.53
56	ODF2L	0.39
57	ODF2L	1.06
58	ODF2L	1.35
59	ODF2L	2.87 (active)
60	BMAL2	-0.25
61	BMAL2	-0.51
62	BMAL2	0
63	BMAL2	0.76
64	TMEM89	-0.9
65	TMEM89	-0.52
66	TMEM89	-0.45
67	TMEM89	0.17
68	H2BC1	0.43
69	H2BC1	0.34
70	H2BC1	-0.68
71	H2BC1	0.5
72	OR5K4	0.47
73	OR5K4	0.81
74	OR5K4	0.23
75	OR5K4	-0.85

Sorted by “TNF reporter robust z-score” (descending): some entries from above.
gene	TNF reporter robust z-score
N4BP2L1	0.57
N4BP2L1	-0.11
SUCO	-0.38
N4BP2L1	-0.56
SUCO	-1.1
SUCO	-1.24
SUCO	-1.5
